Test results as given in PMC6494814, “Kremen1-induced cell death is regulated by homo- and heterodimerization” (Cell Death Discovery, 2019).

Target: T1, Kremen1 (Krm1), full length, Flag-tagged or HA-tagged (UniProt Q99N43)
T1 sequence: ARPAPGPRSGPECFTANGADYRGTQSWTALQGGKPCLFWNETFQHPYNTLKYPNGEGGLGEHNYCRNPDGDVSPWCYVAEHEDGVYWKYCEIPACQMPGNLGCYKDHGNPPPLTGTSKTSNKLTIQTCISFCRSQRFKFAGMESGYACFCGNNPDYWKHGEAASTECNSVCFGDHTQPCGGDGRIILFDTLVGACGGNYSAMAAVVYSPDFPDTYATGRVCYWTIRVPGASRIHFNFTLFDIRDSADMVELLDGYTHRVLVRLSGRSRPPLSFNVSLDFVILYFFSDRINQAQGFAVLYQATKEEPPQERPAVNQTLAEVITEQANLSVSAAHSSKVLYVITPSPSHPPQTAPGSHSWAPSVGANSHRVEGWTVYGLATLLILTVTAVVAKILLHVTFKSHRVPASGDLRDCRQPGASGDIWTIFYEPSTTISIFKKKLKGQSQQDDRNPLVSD
Assay: co-IP; HEK293T cells co-transfected, lysed after 24 h in 25 mM Tris pH7.4, 150 mM NaCl, 5 mM EDTA, 1% Triton-X100, 10% Glycerol; anti-Flag immunoprecipitation (Dynabeads proteinG), anti-HA western blot

Row | binding | Substance
1 | binds | HA-Krm1ΔICD, Krm1 lacking the intracellular domain (domain or fragment)
2 | binds | HA-Krm2ΔICD, Krm2 lacking the intracellular domain (domain or fragment)

These are yes or no findings as the source states them, for the method shown. Binding seen in cells or lysates may run through a third protein. A result given as binding can be weak or reduced; the word gives no strength. Sequences can lack the tags named with a protein.
